Reference: patent US20140199327A1, “METHODS OF PROMOTING DIFFERENTIATION” (Genentech, Inc., priority 2011, published 2014)
No constants are given. Whether binding was seen depends on the method and setting. For some assays here: In cells and extracts the contact can be indirect. Some results given as binding are weak or reduced against the parent protein; the word gives no strength. Where a sequence is shown, tags or fusion partners need not be part of it.

Tests used:
[1] = molecular target: T1, ID2 (co-transfected / co-expressed in 293T cells) (Homo sapiens (Human)) (UniProt Q02363); experiment: discussion of the DUB screen and co-immunoprecipitation (FIG. 2)
T1 sequence: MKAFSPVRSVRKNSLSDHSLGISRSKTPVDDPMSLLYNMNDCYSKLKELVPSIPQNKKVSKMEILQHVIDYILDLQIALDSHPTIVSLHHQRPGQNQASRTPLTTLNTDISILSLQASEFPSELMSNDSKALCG

[2] = molecular target: T1, ID2 (co-transfected / co-expressed in 293T cells) (Homo sapiens (Human)); experiment: Flag immunoprecipitation of DUBs from 293T cells cotransfected with ID2, MG-132 treated; blot for ID2 (FIG. 2B)

B1: USP33-Flag (human USP33 with C-terminal Flag epitope) (enzyme, UniProt Q8TEY7 1-942, looked up, not shown: small tags and cut ends)
chain: MTGSNSHITILTLKVLPHFESLGKQEKIPNKMSAFRNHCPHLDSVGEITKEDLIQKSLGTCQDCKVQGPNLWACLENRCSYVGCGESQVDHSTIHSQETKHYLTVNLTTLRVWCYACSKEVFLDRKLGTQPSLPHVRQPHQIQENSVQDFKIPSNTTLKTPLVAVFDDLDIEADEEDELRARGLTGLKNIGNTCYMNAALQALSNCPPLTQFFLDCGGLARTDKKPAICKSYLKLMTELWHKSRPGSVVPTTLFQGIKTVNPTFRGYSQQDAQEFLRCLMDLLHEELKEQVMEVEEDPQTITTEETMEEDKSQSDVDFQSCESCSNSDRAENENGSRCFSEDNNETTMLIQDDENNSEMSKDWQKEKMCNKINKVNSEGEFDKDRDSISETVDLNNQETVKVQIHSRASEYITDVHSNDLSTPQILPSNEGVNPRLSASPPKSGNLWPGLAPPHKKAQSASPKRKKQHKKYRSVISDIFDGTIISSVQCLTCDRVSVTLETFQDLSLPIPGKEDLAKLHSSSHPTSIVKAGSCGEAYAPQGWIAFFMEYVKRFVVSCVPSWFWGPVVTLQDCLAAFFARDELKGDNMYSCEKCKKLRNGVKFCKVQNFPEILCIHLKRFRHELMFSTKISTHVSFPLEGLDLQPFLAKDSPAQIVTYDLLSVICHHGTASSGHYIAYCRNNLNNLWYEFDDQSVTEVSESTVQNAEAYVLFYRKSSEEAQKERRRISNLLNIMEPSLLQFYISRQWLNKFKTFAEPGPISNNDFLCIHGGVPPRKAGYIEDLVLMLPQNIWDNLYSRYGGGPAVNHLYICHTCQIEAEKIEKRRKTELEIFIRLNRAFQKEDSPATFYCISMQWFREWESFVKGKDGDPPGPIDNTKIAVTKCGNVMLRQGADSGQISEETWNFLQSIYGGGPEVILRPPVVHVDPDILQAEEKIEVETRSL
- binding [1]: binds
- binding [2]: binds
